# Results taken from the supplement of paper PMC12823440, “Inhibitors supercharge kinase turnover through native proteolytic circuits” (Nature, 2025).
# Amino acid sequences for entries named in this document (tags omitted). A change or cut given only in a name is not applied to a line headed by its entry.
# UniProt P10398: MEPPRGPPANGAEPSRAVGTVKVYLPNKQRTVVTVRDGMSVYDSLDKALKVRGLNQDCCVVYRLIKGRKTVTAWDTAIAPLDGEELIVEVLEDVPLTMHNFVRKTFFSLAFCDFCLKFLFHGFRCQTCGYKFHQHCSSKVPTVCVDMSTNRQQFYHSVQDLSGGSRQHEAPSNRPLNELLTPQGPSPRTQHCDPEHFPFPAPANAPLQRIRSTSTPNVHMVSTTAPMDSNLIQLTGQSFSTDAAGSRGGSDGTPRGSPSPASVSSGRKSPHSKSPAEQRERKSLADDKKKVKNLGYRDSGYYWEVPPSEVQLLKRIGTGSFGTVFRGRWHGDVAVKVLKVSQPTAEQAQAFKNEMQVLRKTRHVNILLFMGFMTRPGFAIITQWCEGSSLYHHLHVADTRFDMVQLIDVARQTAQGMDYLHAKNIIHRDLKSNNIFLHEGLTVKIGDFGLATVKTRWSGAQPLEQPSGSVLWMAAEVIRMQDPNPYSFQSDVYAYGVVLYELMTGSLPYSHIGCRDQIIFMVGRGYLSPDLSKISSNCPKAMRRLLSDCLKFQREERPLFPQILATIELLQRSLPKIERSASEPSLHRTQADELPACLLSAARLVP
# UniProt O14965: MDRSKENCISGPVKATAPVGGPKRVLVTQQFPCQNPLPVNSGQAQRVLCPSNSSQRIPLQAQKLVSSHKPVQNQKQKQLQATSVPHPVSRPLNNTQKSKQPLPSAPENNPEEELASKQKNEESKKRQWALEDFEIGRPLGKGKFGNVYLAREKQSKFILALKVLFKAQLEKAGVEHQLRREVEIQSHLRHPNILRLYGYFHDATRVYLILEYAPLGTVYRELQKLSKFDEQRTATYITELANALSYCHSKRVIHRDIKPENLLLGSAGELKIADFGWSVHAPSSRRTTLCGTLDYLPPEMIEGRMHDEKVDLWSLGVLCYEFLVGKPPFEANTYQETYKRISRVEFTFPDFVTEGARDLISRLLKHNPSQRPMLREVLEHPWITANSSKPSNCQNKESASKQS
# UniProt Q96GD4, whole entry: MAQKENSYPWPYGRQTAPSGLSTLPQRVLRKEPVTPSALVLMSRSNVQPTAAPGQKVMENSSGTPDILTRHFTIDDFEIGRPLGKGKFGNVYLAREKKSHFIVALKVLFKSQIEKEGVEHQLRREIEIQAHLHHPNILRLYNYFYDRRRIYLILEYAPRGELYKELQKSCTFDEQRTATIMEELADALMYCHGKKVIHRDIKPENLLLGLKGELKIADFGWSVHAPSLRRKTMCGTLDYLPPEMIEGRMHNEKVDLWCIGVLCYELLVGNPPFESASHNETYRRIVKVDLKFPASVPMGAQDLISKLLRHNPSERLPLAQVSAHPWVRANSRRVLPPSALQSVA
# UniProt Q9UQB9: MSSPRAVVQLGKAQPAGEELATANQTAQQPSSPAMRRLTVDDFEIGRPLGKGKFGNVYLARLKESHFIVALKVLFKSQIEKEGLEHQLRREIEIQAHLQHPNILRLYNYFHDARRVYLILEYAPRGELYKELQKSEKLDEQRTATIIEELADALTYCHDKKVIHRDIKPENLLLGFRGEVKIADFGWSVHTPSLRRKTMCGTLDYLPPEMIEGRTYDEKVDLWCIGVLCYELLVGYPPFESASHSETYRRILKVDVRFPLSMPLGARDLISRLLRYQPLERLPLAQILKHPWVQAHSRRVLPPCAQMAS
# UniProt P51451: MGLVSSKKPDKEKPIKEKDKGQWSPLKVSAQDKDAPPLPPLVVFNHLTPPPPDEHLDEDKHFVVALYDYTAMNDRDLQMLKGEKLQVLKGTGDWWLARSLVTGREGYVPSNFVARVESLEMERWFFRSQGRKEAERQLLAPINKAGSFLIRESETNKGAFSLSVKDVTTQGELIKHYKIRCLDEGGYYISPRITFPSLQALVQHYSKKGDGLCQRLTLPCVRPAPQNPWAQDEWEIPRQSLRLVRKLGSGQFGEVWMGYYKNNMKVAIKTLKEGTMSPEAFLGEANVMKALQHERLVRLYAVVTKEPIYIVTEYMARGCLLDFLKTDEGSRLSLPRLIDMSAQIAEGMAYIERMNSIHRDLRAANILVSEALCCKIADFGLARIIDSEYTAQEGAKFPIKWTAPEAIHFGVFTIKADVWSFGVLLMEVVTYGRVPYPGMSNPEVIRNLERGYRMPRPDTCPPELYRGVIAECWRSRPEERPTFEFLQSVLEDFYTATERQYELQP
# UniProt P51813: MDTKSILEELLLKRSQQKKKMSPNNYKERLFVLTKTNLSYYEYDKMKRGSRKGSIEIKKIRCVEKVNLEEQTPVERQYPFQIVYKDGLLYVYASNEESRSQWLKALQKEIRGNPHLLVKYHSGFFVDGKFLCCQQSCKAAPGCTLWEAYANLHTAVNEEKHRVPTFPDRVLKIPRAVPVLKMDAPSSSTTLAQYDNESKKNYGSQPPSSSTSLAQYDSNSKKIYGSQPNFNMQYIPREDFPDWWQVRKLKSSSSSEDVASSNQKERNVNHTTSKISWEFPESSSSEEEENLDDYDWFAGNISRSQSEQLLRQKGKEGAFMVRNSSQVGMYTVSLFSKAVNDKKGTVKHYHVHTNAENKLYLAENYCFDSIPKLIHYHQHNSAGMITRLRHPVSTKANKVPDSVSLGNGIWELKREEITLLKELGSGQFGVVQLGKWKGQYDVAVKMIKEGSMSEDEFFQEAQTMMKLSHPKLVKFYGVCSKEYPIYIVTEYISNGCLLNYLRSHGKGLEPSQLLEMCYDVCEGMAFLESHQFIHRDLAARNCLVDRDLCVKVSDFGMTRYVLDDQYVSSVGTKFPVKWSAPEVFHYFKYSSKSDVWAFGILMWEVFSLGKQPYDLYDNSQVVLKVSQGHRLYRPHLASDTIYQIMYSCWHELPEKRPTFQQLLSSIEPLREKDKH
# UniProt P15056, whole entry, looked up: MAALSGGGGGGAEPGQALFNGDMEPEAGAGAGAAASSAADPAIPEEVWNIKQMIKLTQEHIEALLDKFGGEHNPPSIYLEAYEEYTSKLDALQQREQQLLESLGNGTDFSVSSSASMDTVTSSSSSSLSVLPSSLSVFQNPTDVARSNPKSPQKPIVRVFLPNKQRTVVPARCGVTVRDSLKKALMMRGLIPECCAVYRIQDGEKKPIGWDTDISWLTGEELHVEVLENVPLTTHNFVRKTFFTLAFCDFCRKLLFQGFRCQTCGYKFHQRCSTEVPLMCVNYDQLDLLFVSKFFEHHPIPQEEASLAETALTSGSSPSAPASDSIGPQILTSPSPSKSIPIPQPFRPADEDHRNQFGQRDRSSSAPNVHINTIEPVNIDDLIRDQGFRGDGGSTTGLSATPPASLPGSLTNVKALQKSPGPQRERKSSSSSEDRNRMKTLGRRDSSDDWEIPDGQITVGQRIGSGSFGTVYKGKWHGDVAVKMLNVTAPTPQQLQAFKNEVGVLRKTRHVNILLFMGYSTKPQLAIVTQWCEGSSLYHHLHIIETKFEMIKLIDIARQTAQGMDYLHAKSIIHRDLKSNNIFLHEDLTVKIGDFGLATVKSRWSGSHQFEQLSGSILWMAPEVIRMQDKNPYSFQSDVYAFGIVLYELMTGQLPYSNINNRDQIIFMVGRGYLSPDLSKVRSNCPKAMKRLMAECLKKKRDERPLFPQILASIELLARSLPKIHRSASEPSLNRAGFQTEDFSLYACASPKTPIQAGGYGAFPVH
# UniProt Q06187: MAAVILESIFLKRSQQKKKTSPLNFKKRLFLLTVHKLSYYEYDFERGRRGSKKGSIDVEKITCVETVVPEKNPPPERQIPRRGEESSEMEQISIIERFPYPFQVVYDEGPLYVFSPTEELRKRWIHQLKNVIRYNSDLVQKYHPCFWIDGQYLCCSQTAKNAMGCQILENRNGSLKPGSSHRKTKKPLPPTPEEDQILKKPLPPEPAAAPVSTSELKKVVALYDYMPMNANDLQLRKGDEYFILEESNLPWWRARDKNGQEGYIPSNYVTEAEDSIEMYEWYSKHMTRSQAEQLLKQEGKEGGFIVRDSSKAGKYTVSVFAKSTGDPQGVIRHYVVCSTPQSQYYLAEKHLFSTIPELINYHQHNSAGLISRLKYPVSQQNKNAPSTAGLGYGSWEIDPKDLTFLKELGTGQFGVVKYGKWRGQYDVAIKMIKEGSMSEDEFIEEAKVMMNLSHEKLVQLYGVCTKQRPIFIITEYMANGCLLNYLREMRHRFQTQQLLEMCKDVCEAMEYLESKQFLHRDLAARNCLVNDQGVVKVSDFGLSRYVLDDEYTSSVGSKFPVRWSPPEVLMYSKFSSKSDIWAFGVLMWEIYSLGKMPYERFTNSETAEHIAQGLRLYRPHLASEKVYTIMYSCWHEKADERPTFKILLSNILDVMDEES
# UniProt Q9UQM7, whole entry: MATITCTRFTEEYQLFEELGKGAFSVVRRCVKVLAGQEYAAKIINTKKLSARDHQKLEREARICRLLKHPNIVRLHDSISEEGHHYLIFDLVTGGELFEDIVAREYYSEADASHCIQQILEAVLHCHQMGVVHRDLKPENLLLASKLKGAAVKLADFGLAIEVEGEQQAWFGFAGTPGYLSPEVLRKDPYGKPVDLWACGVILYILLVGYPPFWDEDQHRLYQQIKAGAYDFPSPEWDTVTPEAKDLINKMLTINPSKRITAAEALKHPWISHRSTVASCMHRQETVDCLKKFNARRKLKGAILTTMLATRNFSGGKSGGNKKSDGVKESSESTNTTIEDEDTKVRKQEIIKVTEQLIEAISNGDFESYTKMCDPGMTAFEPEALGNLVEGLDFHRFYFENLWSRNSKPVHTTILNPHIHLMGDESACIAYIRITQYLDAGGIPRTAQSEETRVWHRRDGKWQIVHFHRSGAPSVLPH
# UniProt Q13555: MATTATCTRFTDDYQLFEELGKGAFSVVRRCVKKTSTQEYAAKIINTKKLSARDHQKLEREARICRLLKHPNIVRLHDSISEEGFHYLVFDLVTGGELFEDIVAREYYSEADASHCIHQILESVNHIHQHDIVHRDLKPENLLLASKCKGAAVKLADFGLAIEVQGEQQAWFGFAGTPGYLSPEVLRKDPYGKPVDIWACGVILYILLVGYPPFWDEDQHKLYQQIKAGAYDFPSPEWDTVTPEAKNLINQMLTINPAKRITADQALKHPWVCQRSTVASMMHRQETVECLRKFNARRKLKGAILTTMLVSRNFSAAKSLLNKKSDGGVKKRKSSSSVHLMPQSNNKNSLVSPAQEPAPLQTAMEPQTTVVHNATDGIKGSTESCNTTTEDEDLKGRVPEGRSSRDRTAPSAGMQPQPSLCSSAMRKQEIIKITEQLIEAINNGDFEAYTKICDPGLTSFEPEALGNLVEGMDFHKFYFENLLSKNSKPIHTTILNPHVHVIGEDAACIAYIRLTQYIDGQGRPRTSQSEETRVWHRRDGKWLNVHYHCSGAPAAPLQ
# UniProt Q15131: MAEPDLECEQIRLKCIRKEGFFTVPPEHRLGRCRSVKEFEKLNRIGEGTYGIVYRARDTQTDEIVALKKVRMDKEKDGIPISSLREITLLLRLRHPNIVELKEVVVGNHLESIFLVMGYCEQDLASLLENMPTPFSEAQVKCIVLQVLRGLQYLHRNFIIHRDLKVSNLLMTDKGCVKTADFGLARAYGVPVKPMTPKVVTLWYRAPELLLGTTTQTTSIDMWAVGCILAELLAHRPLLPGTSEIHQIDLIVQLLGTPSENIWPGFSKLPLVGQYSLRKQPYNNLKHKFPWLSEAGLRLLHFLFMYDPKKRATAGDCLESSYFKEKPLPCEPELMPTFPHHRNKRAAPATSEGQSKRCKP
# UniProt Q00526: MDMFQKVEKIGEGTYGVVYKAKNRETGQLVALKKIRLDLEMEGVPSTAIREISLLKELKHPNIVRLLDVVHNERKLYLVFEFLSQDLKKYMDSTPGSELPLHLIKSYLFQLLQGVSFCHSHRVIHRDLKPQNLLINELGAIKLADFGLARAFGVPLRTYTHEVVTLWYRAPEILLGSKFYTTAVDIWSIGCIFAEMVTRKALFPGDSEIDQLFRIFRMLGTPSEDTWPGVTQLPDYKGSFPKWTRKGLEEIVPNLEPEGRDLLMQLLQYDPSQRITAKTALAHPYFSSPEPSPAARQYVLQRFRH
# UniProt Q00535, whole entry, looked up: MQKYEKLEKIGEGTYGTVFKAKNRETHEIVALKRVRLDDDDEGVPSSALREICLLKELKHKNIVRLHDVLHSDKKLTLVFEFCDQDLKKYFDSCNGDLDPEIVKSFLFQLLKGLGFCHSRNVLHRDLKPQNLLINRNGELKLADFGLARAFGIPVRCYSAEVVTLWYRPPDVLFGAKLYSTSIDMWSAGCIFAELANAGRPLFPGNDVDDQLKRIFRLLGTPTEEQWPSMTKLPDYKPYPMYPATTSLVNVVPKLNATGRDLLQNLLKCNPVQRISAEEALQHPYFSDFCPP
# UniProt Q00534, whole entry: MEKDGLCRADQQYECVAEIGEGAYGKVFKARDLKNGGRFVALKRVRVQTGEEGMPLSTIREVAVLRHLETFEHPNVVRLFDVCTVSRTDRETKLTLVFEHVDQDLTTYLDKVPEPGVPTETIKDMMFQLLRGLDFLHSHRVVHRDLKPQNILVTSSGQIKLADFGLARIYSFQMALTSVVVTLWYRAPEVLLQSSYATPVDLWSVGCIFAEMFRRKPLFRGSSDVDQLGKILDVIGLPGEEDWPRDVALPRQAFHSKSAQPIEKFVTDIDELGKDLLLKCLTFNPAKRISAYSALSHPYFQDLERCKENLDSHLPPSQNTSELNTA
# Where a name gives a salt, the structure may show the parent alone. Some of the results follow. The calls rarely recur for the same compound in another form.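 Kinases, fused to nanoluciferase, were expressed in K562 cells; luminescence was measured every 4 h from 2 to 18 h as percent of control (DMSO = 100%, positive control = 0%). A time point is decreased if signal falls significantly (2 sigma). Hits were called by the authors by a rule that is not shown; the count of time points alone does not decide it.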
# Columns and labels:
# Test in all cases: kinase-Nluc reporter destabilization hit call (1 = scored as downregulated) (binary); higher = compound decreases kinase abundance
# Conditions in all cases: K562; 2-18 h
# ABL1 = ABL1 (UniProt P00519)
# AKT1 = AKT1 (UniProt P31749)
# ALK = ALK (UniProt Q9UM73)
# ARAF = ARAF (UniProt P10398)
# AURKA = AURKA (UniProt O14965)
# AURKB = AURKB (UniProt Q96GD4)
# AURKC = AURKC (UniProt Q9UQB9)
# BLK = BLK (UniProt P51451)
# BMX = BMX (UniProt P51813)
# BRAF = BRAF (UniProt P15056)
# BRAF_V600E = test system: BRAF_V600E
# BTK = BTK (UniProt Q06187)
# CAMK2A = CAMK2A (UniProt Q9UQM7)
# CAMK2G = CAMK2G (UniProt Q13555)
# CDK10 = CDK10 (UniProt Q15131)
# CDK2 = CDK2 (UniProt P24941)
# CDK3 = CDK3 (UniProt Q00526)
# CDK4 = CDK4 (UniProt P11802)
# CDK5 = CDK5 (UniProt Q00535)
# CDK6 = CDK6 (UniProt Q00534)
SMILES,kinase-Nluc reporter destabilization hit call (ABL1),kinase-Nluc reporter destabilization hit call (AKT1),kinase-Nluc reporter destabilization hit call (ALK),kinase-Nluc reporter destabilization hit call (ARAF),kinase-Nluc reporter destabilization hit call (AURKA),kinase-Nluc reporter destabilization hit call (AURKB),kinase-Nluc reporter destabilization hit call (AURKC),kinase-Nluc reporter destabilization hit call (BLK),kinase-Nluc reporter destabilization hit call (BMX),kinase-Nluc reporter destabilization hit call (BRAF),kinase-Nluc reporter destabilization hit call (BRAF_V600E),kinase-Nluc reporter destabilization hit call (BTK),kinase-Nluc reporter destabilization hit call (CAMK2A),kinase-Nluc reporter destabilization hit call (CAMK2G),kinase-Nluc reporter destabilization hit call (CDK10),kinase-Nluc reporter destabilization hit call (CDK2),kinase-Nluc reporter destabilization hit call (CDK3),kinase-Nluc reporter destabilization hit call (CDK4),kinase-Nluc reporter destabilization hit call (CDK5),kinase-Nluc reporter destabilization hit call (CDK6)
C=CC(=O)Nc1ccc2[nH]c(=O)n(C3CCN(Cc4ccc(-c5nc6cc[nH]c(=O)c6cc5-c5ccccc5)cc4)CC3)c2c1 [Borussertib] (10 µM),inactive: 0,inactive: 0,inactive: 0,inactive: 0,inactive: 0,inactive: 0,inactive: 0,inactive: 0,inactive: 0,inactive: 0,inactive: 0,inactive: 0,inactive: 0,inactive: 0,inactive: 0,inactive: 0,inactive: 0,inactive: 0,inactive: 0,inactive: 0
C[C@@H]1CC[C@H]2[C@@H](C)C(=O)O[C@@H]3O[C@@]4(C)CC[C@@H]1[C@]32OO4 [Artemisinin] (10 µM),inactive: 0,inactive: 0,inactive: 0,inactive: 0,inactive: 0,inactive: 0,inactive: 0,inactive: 0,inactive: 0,inactive: 0,inactive: 0,inactive: 0,inactive: 0,inactive: 0,inactive: 0,inactive: 0,inactive: 0,inactive: 0,inactive: 0,inactive: 0
O=C1C=CC[C@@H]2[C@H]3CCCN4CCC[C@@H](CN12)[C@@H]34 [Sophocarpine] (10 µM),inactive: 0,inactive: 0,inactive: 0,inactive: 0,inactive: 0,inactive: 0,inactive: 0,inactive: 0,inactive: 0,inactive: 0,inactive: 0,inactive: 0,inactive: 0,inactive: 0,inactive: 0,inactive: 0,inactive: 0,inactive: 0,inactive: 0,inactive: 0
COc1ccc(/C=C/c2cc(OC)c(OC)c(OC)c2)cc1 (2.5 µM),inactive: 0,inactive: 0,inactive: 0,inactive: 0,inactive: 0,inactive: 0,inactive: 0,inactive: 0,inactive: 0,inactive: 0,inactive: 0,inactive: 0,inactive: 0,inactive: 0,inactive: 0,inactive: 0,inactive: 0,inactive: 0,inactive: 0,inactive: 0
Cc1ccccc1-n1c(Cn2cnc3c(N)ncnc32)nc2cccc(C)c2c1=O (10 µM),inactive: 0,inactive: 0,inactive: 0,inactive: 0,inactive: 0,inactive: 0,inactive: 0,inactive: 0,inactive: 0,inactive: 0,inactive: 0,inactive: 0,inactive: 0,inactive: 0,inactive: 0,inactive: 0,inactive: 0,inactive: 0,inactive: 0,inactive: 0
Nc1ncnc2c1ncn2[C@@H]1O[C@@H]2COP(O)(=S)O[C@H]2[C@H]1O (stereo not given in full) [Sp-cAMPS (sodium salt)] (10 µM),inactive: 0,inactive: 0,inactive: 0,inactive: 0,inactive: 0,inactive: 0,inactive: 0,inactive: 0,inactive: 0,inactive: 0,inactive: 0,inactive: 0,inactive: 0,inactive: 0,inactive: 0,inactive: 0,inactive: 0,inactive: 0,inactive: 0,inactive: 0
N#CC(C#N)=Cc1ccc(O)c(O)c1 [Tyrphostin 23] (10 µM),inactive: 0,inactive: 0,inactive: 0,inactive: 0,inactive: 0,inactive: 0,inactive: 0,inactive: 0,inactive: 0,inactive: 0,inactive: 0,inactive: 0,inactive: 0,inactive: 0,inactive: 0,inactive: 0,inactive: 0,inactive: 0,inactive: 0,inactive: 0
C[C@H](Nc1ncnc2[nH]cnc12)c1nc2ccc(F)cc2c(=O)n1-c1ccccc1 [Acalisib] (10 µM),inactive: 0,inactive: 0,inactive: 0,inactive: 0,inactive: 0,inactive: 0,inactive: 0,inactive: 0,inactive: 0,inactive: 0,inactive: 0,inactive: 0,inactive: 0,inactive: 0,inactive: 0,inactive: 0,inactive: 0,inactive: 0,inactive: 0,inactive: 0
CCCS(=O)(=O)Nc1ccc(F)c(-n2cc(-c3cncnc3)c3nc(N(C)C4CCN(CC)CC4)ccc32)c1F (2 µM),inactive: 0,inactive: 0,inactive: 0,inactive: 0,inactive: 0,inactive: 0,inactive: 0,inactive: 0,inactive: 0,inactive: 0,inactive: 0,inactive: 0,inactive: 0,inactive: 0,inactive: 0,inactive: 0,inactive: 0,inactive: 0,inactive: 0,inactive: 0
O=c1[nH]c2ccccc2n1C1CCN(CCCC(c2ccc(F)cc2)c2ccc(F)cc2)CC1 [Pimozide] (2.5 µM),inactive: 0,inactive: 0,inactive: 0,inactive: 0,inactive: 0,inactive: 0,inactive: 0,inactive: 0,inactive: 0,inactive: 0,inactive: 0,inactive: 0,inactive: 0,inactive: 0,inactive: 0,inactive: 0,inactive: 0,inactive: 0,inactive: 0,inactive: 0
CC1=C[C@]23C(=O)[C@@H](C=C(CO)[C@@H](O)[C@]2(O)[C@H]1O)[C@H]1[C@@H](C[C@H]3C)C1(C)C [Ingenol] (10 µM),inactive: 0,inactive: 0,inactive: 0,inactive: 0,inactive: 0,inactive: 0,inactive: 0,inactive: 0,inactive: 0,inactive: 0,inactive: 0,inactive: 0,inactive: 0,inactive: 0,inactive: 0,inactive: 0,inactive: 0,inactive: 0,inactive: 0,inactive: 0
C[C@H]1CC[C@]2(NC1)O[C@H]1C[C@H]3[C@@H]4CC[C@H]5C[C@@H](O[C@@H]6O[C@H](CO)[C@H](O[C@@H]7O[C@H](CO)[C@@H](O)[C@H](O[C@@H]8OC[C@@H](O)[C@H](O)[C@H]8O)[C@H]7O[C@@H]7O[C@H](CO)[C@@H](O)[C@H](O)[C@H]7O)[C@H](O)[C@H]6O)CC[C@]5(C)[C@H]4CC[C@]3(C)[C@H]1[C@@H]2C [Tomatine] (2.5 µM),inactive: 0,inactive: 0,active: 1,inactive: 0,inactive: 0,active: 1,inactive: 0,inactive: 0,inactive: 0,inactive: 0,inactive: 0,inactive: 0,inactive: 0,inactive: 0,inactive: 0,inactive: 0,inactive: 0,inactive: 0,inactive: 0,inactive: 0
COc1ccc(N(C(=O)Oc2c(C)cccc2C)c2ccnc(Nc3ccc(N4CCN(C)CC4)cc3)n2)c(OC)c1 (2.5 µM),inactive: 0,inactive: 0,inactive: 0,inactive: 0,inactive: 0,inactive: 0,inactive: 0,inactive: 0,inactive: 0,inactive: 0,inactive: 0,inactive: 0,inactive: 0,inactive: 0,inactive: 0,inactive: 0,inactive: 0,inactive: 0,inactive: 0,inactive: 0
Cc1ccccc1-n1c(Cn2ncc3c(N)ncnc32)nc2cccc(C)c2c1=O (10 µM),inactive: 0,inactive: 0,inactive: 0,inactive: 0,inactive: 0,inactive: 0,inactive: 0,inactive: 0,inactive: 0,inactive: 0,inactive: 0,inactive: 0,inactive: 0,inactive: 0,inactive: 0,inactive: 0,inactive: 0,inactive: 0,inactive: 0,inactive: 0

# Some of these compounds in order of length of the SMILES, low to high:
SMILES,kinase-Nluc reporter destabilization hit call (ABL1),kinase-Nluc reporter destabilization hit call (AKT1),kinase-Nluc reporter destabilization hit call (ALK),kinase-Nluc reporter destabilization hit call (ARAF),kinase-Nluc reporter destabilization hit call (AURKA),kinase-Nluc reporter destabilization hit call (AURKB),kinase-Nluc reporter destabilization hit call (AURKC),kinase-Nluc reporter destabilization hit call (BLK),kinase-Nluc reporter destabilization hit call (BMX),kinase-Nluc reporter destabilization hit call (BRAF),kinase-Nluc reporter destabilization hit call (BRAF_V600E),kinase-Nluc reporter destabilization hit call (BTK),kinase-Nluc reporter destabilization hit call (CAMK2A),kinase-Nluc reporter destabilization hit call (CAMK2G),kinase-Nluc reporter destabilization hit call (CDK10),kinase-Nluc reporter destabilization hit call (CDK2),kinase-Nluc reporter destabilization hit call (CDK3),kinase-Nluc reporter destabilization hit call (CDK4),kinase-Nluc reporter destabilization hit call (CDK5),kinase-Nluc reporter destabilization hit call (CDK6)
N#CC(C#N)=Cc1ccc(O)c(O)c1 [Tyrphostin 23] (10 µM),inactive: 0,inactive: 0,inactive: 0,inactive: 0,inactive: 0,inactive: 0,inactive: 0,inactive: 0,inactive: 0,inactive: 0,inactive: 0,inactive: 0,inactive: 0,inactive: 0,inactive: 0,inactive: 0,inactive: 0,inactive: 0,inactive: 0,inactive: 0
Cc1ccccc1-n1c(Cn2cnc3c(N)ncnc32)nc2cccc(C)c2c1=O (10 µM),inactive: 0,inactive: 0,inactive: 0,inactive: 0,inactive: 0,inactive: 0,inactive: 0,inactive: 0,inactive: 0,inactive: 0,inactive: 0,inactive: 0,inactive: 0,inactive: 0,inactive: 0,inactive: 0,inactive: 0,inactive: 0,inactive: 0,inactive: 0
CC1=C[C@]23C(=O)[C@@H](C=C(CO)[C@@H](O)[C@]2(O)[C@H]1O)[C@H]1[C@@H](C[C@H]3C)C1(C)C [Ingenol] (10 µM),inactive: 0,inactive: 0,inactive: 0,inactive: 0,inactive: 0,inactive: 0,inactive: 0,inactive: 0,inactive: 0,inactive: 0,inactive: 0,inactive: 0,inactive: 0,inactive: 0,inactive: 0,inactive: 0,inactive: 0,inactive: 0,inactive: 0,inactive: 0
